{
  "source": "patent US20070275932A1",
  "about": "“Aryl, heteroaromatic and bicyclic aryl nitrone compounds, prodrugs and pharmaceutical compositions of the same to treat human disorders” (Renovis, Inc., priority 2003, published 2007)",
  "assay": "Free radical-scavenging/antioxidant assay (DPPH)",
  "type": "biochemical",
  "conditions": "50 μM DPPH in 80% methanol, absorbance at 520 nm, 24 h time point (steady state); read-out: EC50 (concentration at which a compound reduces by 50% the peak absorbance of DPPH at 520 nm)",
  "experimental": "Nitrone compounds of the present invention were tested for their free-radical scavenging/antioxidant activity in an in vitro assay that is accepted by those skilled in the art as a model for conditions involving the generation of free radicals. The assay is based on a reaction between a free-radical donor, 2,2-diphenyl-1-picrylhydrazyl (DPPH), and a radical scavenger/antioxidant to be tested for free-radical scavenging activity. Upon donation of the free-radical electron to the purported radical scavenger, the peak visible absorbance of DPPH (515-520 nm) decreases so that optical density readings at this part of the visual spectrum reflect the progression of the following reaction: DPPH∩+AH→DPPH-H+A∩ where AH is a hypothetical radical scavenger/antioxidant. […]\nThe antioxidant assay was performed using Perkin-Elmer 96-well, clear-bottom, black-wall plates (ordered from E & K Scientific Products) and a Tecan Safire absorbance plate reader. […] The absorbance was immediately read on the plate reader at 520 nm and thereafter read periodically to assess kinetics until all reactions reached completion (i.e., steady state). […] The absorbance at 520 nm (OD) was plotted versus the concentrations of the controls and nitrone compounds to assess dose-response and interpolate the EC50 values of the controls and test compounds.",
  "note": "For at least one compound, name, drawing or mass did not settle the structure.",
  "data": [
    {"smiles": "CN(C)C(=O)c1ccccc1/C=[N+](\\[O-])C(C)(C)C", "note": "[Example 13, N-(tert-Butyl)-C-[2-(N,N-dimethylcarbamoyl)phenyl]nitrone]", "values": [
      {"measurement": "EC50", "value": "100 to 500", "unit": "µM"}
    ]}
  ]
}
